# Measurements from the supplement of paper PMC8728848.
# The list shows a part of the results.
# Assays:
# Assay in all cases: glycan array binding signal (z-score within array); higher = stronger binding
# Settings in all cases: glycan notation: IUPAC condensed, linker removed
# [1] = target: Gal(a1-3)GalNAc
# Outline: (§1)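 Glycan array data came from 3228 arrays in the Consortium for Functional Glycomics database, and only arrays with an available protein sequence were kept. Glycan names were put into IUPAC-condensed notation, and columns mapping to the same glycan were averaged. The binding signal is a within-array Z-score, averaged across arrays of one protein sequence run at different concentrations or buffers and across linkers. A negative Z-score can be read as non-binding.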
# [2] = target: Gal(a1-3)[Gal(a1-4)]Gal(b1-4)GlcNAc
# Outline: as §1
# [3] = target: Gal(a1-4)Gal(b1-3)GlcNAc(b1-2)Man(a1-3)[Gal(a1-4)Gal(b1-3)GlcNAc(b1-2)Man(a1-6)]Man(b1-4)GlcNAc(b1-4)GlcNAc
# Outline: as §1
# [4] = target: Gal(a1-4)Gal(b1-4)Glc
# Outline: as §1
# [5] = target: Gal(a1-4)Gal(b1-4)GlcNAc
# Outline: as §1
# [6] = target: Gal(a1-4)Gal(b1-4)GlcNAc(b1-2)Man(a1-3)[Gal(a1-4)Gal(b1-4)GlcNAc(b1-2)Man(a1-6)]Man(b1-4)GlcNAc(b1-4)GlcNAc
# Outline: as §1
# [7] = target: Gal(a1-4)Gal(b1-4)GlcNAc(b1-3)Gal(b1-4)Glc
# Outline: as §1
# [8] = target: Gal(a1-4)GlcNAc
# Outline: as §1
# [9] = target: Gal(a1-6)Glc
# Outline: as §1
# [10] = target: Gal(b1-2)Gal
# Outline: as §1
# [11] = target: Gal(b1-3)Gal
# Outline: as §1
# [12] = target: Gal(b1-3)Gal(b1-4)GlcNAc
# Outline: as §1
# [13] = target: Gal(b1-3)GalNAc
# Outline: as §1
# [14] = target: Gal(b1-3)GalNAc(a1-3)[Fuc(a1-2)]Gal(b1-4)Glc
# Outline: as §1
# [15] = target: Gal(b1-3)GalNAc(a1-3)[Fuc(a1-2)]Gal(b1-4)GlcNAc
# Outline: as §1
# [16] = target: Gal(b1-3)GalNAc(b1-3)Gal
# Outline: as §1
# [17] = target: Gal(b1-3)GalNAc(b1-3)Gal(a1-4)Gal(b1-4)Glc
# Outline: as §1
# [18] = target: Gal(b1-3)GalNAc(b1-4)Gal(b1-4)Glc
# Outline: as §1
# [19] = target: Gal(b1-3)GalNAc(b1-4)[Neu5Ac(a2-3)]Gal(b1-4)Glc
# Outline: as §1
# [20] = target: Gal(b1-3)GlcNAc
# Outline: as §1
# [21] = target: Gal(b1-3)GlcNAc(a1-3)Gal(b1-4)GlcNAc
# Outline: as §1
# [22] = target: Gal(b1-3)GlcNAc(a1-6)Gal(b1-4)GlcNAc
# Outline: as §1
# [23] = target: Gal(b1-3)GlcNAc(b1-2)Man
# Outline: as §1
# [24] = target: Gal(b1-3)GlcNAc(b1-2)Man(a1-3)[Gal(b1-3)GlcNAc(b1-2)Man(a1-6)]Man(b1-4)GlcNAc(b1-4)GlcNAc
# Outline: as §1
# [25] = target: Gal(b1-3)GlcNAc(b1-2)Man(a1-3)[Gal(b1-3)GlcNAc(b1-2)Man(a1-6)]Man(b1-4)GlcNAc(b1-4)[Fuc(a1-6)]GlcNAc
# Outline: as §1
# [26] = target: Gal(b1-3)GlcNAc(b1-2)Man(a1-3)[GlcNAc(b1-4)][Gal(b1-3)GlcNAc(b1-2)Man(a1-6)]Man(b1-4)GlcNAc(b1-4)GlcNAc
# Outline: as §1
# [27] = target: Gal(b1-3)GlcNAc(b1-2)[Gal(b1-3)GlcNAc(b1-6)]Man(a1-6)[Gal(b1-3)GlcNAc(b1-2)Man(a1-3)]Man(b1-4)GlcNAc(b1-4)GlcNAc
# Outline: as §1
# [28] = target: Gal(b1-3)GlcNAc(b1-3)Gal(b1-3)GlcNAc
# Outline: as §1
# [29] = target: Gal(b1-3)GlcNAc(b1-3)Gal(b1-4)Glc
# Outline: as §1
# [30] = target: Gal(b1-3)GlcNAc(b1-3)Gal(b1-4)GlcNAc
# Outline: as §1
# [31] = target: Gal(b1-3)GlcNAc(b1-3)Gal(b1-4)GlcNAc(b1-2)Man(a1-3)[Gal(b1-3)GlcNAc(b1-3)Gal(b1-4)GlcNAc(b1-2)Man(a1-6)]Man(b1-4)GlcNAc(b1-4)GlcNAc
# Outline: as §1
# [32] = target: Gal(b1-3)GlcNAc(b1-3)Gal(b1-4)GlcNAc(b1-2)[Gal(b1-3)GlcNAc(b1-3)Gal(b1-4)GlcNAc(b1-6)]Man(a1-6)[Gal(b1-3)GlcNAc(b1-3)Gal(b1-4)GlcNAc(b1-2)Man(a1-3)]Man(b1-4)GlcNAc(b1-4)[Fuc(a1-6)]GlcNAc
# Outline: as §1
# [33] = target: Gal(b1-3)GlcNAc(b1-3)Gal(b1-4)GlcNAc(b1-3)Gal(b1-4)GlcNAc(b1-2)[Gal(b1-3)GlcNAc(b1-3)Gal(b1-4)GlcNAc(b1-3)Gal(b1-4)GlcNAc(b1-6)]Man(a1-6)[Gal(b1-3)GlcNAc(b1-3)Gal(b1-4)GlcNAc(b1-3)Gal(b1-4)GlcNAc(b1-2)Man(a1-3)]Man(b1-4)GlcNAc(b1-4)[Fuc(a1-6)]GlcNAc
# Outline: as §1
# [34] = target: Gal(b1-3)GlcNAc(b1-3)Gal(b1-4)GlcNAc(b1-6)[Gal(b1-3)GlcNAc(b1-3)]Gal(b1-4)Glc
# Outline: as §1
# [35] = target: Gal(b1-3)GlcNAc(b1-3)Gal(b1-4)[Fuc(a1-3)]GlcNAc
# Outline: as §1
# [36] = target: Gal(b1-3)GlcNAc(b1-3)Gal(b1-4)[Fuc(a1-3)]GlcNAc(b1-6)[Gal(b1-3)GlcNAc(b1-3)]Gal(b1-4)Glc
# Outline: as §1
# [37] = target: Gal(b1-3)GlcNAc(b1-3)GalNAc
# Outline: as §1
# [38] = target: Gal(b1-3)GlcNAc(b1-6)Gal(b1-4)GlcNAc
# Outline: as §1
binder,measurement,setting,value
"AT5G24760(45) (Arabidopsis thaliana), Q8LEB2 (protein) MSASSSSFEQPQVITCNAAVAWRAGEPLVMEEVEVSPPQPLEIRIKVVCTSLCRSDLSAWESQSLLPRIFGHEAAGIVESIGEGVTEFEKGDHVLAVFTGECGSCRHCISGKSNMCQVLGMERKGLMHSDQKTRFSIKGKPVYHYCAVSSFSEYTVVHSGCAVKVDPLAPLHKICLLSCGVAAGLGAAWNVADVQKGSSVVIFGLGTVGLSVAQGAKLRGAAQILGVDINPAKAEQAKTFGVTDFINSNDLSEPIPQVIKRMTGGGADFSFECVGDTGIATTALQSCSDGWGMTVTLGVPKAKPEVSAHYGLFLSGKSLKGTLFGGWKPKSDLPSLIDKYMNKEIMIDEFITHNLSFDEINKAFVLMREGKCLRCVLHMPK",glycan array binding signal (z-score),[1],0.963
same,glycan array binding signal (z-score),[2],6.01
same,glycan array binding signal (z-score),[3],-0.036
same,glycan array binding signal (z-score),[4],1.07
same,glycan array binding signal (z-score),[5],1.04
same,glycan array binding signal (z-score),[6],-0.343
same,glycan array binding signal (z-score),[7],0.068
same,glycan array binding signal (z-score),[8],0.133
same,glycan array binding signal (z-score),[9],-0.541
same,glycan array binding signal (z-score),[10],0.51
same,glycan array binding signal (z-score),[11],0.698
same,glycan array binding signal (z-score),[12],-0.084
same,glycan array binding signal (z-score),[13],0.106
same,glycan array binding signal (z-score),[14],-1.06
same,glycan array binding signal (z-score),[15],0.074
same,glycan array binding signal (z-score),[16],-0.299
same,glycan array binding signal (z-score),[17],0.397
same,glycan array binding signal (z-score),[18],1.59
same,glycan array binding signal (z-score),[19],-0.742
same,glycan array binding signal (z-score),[20],0.243
same,glycan array binding signal (z-score),[21],0.352
same,glycan array binding signal (z-score),[22],0.794
same,glycan array binding signal (z-score),[23],0.518
same,glycan array binding signal (z-score),[24],-0.275
same,glycan array binding signal (z-score),[25],0.374
same,glycan array binding signal (z-score),[26],1.06
same,glycan array binding signal (z-score),[27],-0.113
same,glycan array binding signal (z-score),[28],0.451
same,glycan array binding signal (z-score),[29],-0.198
same,glycan array binding signal (z-score),[30],-0.138
same,glycan array binding signal (z-score),[31],-0.597
same,glycan array binding signal (z-score),[32],-0.534
same,glycan array binding signal (z-score),[33],0.084
same,glycan array binding signal (z-score),[34],-0.344
same,glycan array binding signal (z-score),[35],-0.066
same,glycan array binding signal (z-score),[36],-0.862
same,glycan array binding signal (z-score),[37],0.093
same,glycan array binding signal (z-score),[38],0.232

# Reprinted at random: two entries already listed.
binder,measurement,setting,value
"AT5G24760(45) (Arabidopsis thaliana), Q8LEB2 (protein) MSASSSSFEQPQVITCNAAVAWRAGEPLVMEEVEVSPPQPLEIRIKVVCTSLCRSDLSAWESQSLLPRIFGHEAAGIVESIGEGVTEFEKGDHVLAVFTGECGSCRHCISGKSNMCQVLGMERKGLMHSDQKTRFSIKGKPVYHYCAVSSFSEYTVVHSGCAVKVDPLAPLHKICLLSCGVAAGLGAAWNVADVQKGSSVVIFGLGTVGLSVAQGAKLRGAAQILGVDINPAKAEQAKTFGVTDFINSNDLSEPIPQVIKRMTGGGADFSFECVGDTGIATTALQSCSDGWGMTVTLGVPKAKPEVSAHYGLFLSGKSLKGTLFGGWKPKSDLPSLIDKYMNKEIMIDEFITHNLSFDEINKAFVLMREGKCLRCVLHMPK",glycan array binding signal (z-score),[30],-0.138
same,glycan array binding signal (z-score),[3],-0.036
